Test: general procedure: Fmoc solid-phase peptide synthesis; 2-chlorotritylchloride resin (TCP)
Conditions: for step yield: late stage modification step

| Substance | step yield | conjugation yield (conjugation step) |
| --- | --- | --- |
| Ac-Lys(OAloc)-Gly-Asp(OAll)-Glu(OAll)-Val-Asp(OAll)-PABC | 20.5% | – |
| Ac-Lys(OAloc)-Gly-Asp(OAll)-Glu(OAll)-Val-Asp(OAll)-PABC-DOX | – | 74% |
| Ac-Lys(OAloc)-Gly-Asp(OAll)-Glu(OAll)-Val-Asp(OAll)-PABOH | 84% | – |
